No constants are given. Whether binding was seen depends on the method and setting. Binding seen in cells or lysates may run through a third protein. Tags and fused reporters may be left off the sequences shown.
Target: T1, GFP-tagged human heme oxidase-1 (human) (UniProt P09601)
T1 sequence: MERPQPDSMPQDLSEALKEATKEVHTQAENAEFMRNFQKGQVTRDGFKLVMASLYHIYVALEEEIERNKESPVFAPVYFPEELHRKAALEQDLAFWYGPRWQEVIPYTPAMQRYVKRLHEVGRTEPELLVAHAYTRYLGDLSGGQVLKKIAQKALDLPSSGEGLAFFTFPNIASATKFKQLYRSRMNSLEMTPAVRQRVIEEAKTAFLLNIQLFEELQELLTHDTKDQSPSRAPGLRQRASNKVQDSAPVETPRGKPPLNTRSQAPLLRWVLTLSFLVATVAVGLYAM
Experiment: co-IP; INS-1 832/13 lysate (50 mM Tris-HCl pH 7.5, 150 mM NaCl, 1 mM EDTA, 0.1% NP-40) incubated with GFP-trap agarose beads 15 min at 4 °C; blotted with anti-RFP and anti-GFP; also after low (2.8 mM) or high (25 mM) glucose for 15 min

binding: no binding
Substance: proinsulin-mRFP (from human preproinsulin tagged with mRFP at its C-terminus)
